Paper PMC6925144, “A prospective compound screening contest identified broader inhibitors for Sirtuin 1” (Scientific Reports, 2019)
The full ranking holds about 3,200 compounds; the median of “TSA(with NAD+) / Primary screening (TSA) / delta Tm (K)” is about -0.04, and the highest 2% start at about 0.37. The list shows a part of the results.

Protein sequences, listed by entry. Tags and fused reporters are not part of them. Residues count along the entry.
UniProt Q96EB6, 2-747 limits assumed: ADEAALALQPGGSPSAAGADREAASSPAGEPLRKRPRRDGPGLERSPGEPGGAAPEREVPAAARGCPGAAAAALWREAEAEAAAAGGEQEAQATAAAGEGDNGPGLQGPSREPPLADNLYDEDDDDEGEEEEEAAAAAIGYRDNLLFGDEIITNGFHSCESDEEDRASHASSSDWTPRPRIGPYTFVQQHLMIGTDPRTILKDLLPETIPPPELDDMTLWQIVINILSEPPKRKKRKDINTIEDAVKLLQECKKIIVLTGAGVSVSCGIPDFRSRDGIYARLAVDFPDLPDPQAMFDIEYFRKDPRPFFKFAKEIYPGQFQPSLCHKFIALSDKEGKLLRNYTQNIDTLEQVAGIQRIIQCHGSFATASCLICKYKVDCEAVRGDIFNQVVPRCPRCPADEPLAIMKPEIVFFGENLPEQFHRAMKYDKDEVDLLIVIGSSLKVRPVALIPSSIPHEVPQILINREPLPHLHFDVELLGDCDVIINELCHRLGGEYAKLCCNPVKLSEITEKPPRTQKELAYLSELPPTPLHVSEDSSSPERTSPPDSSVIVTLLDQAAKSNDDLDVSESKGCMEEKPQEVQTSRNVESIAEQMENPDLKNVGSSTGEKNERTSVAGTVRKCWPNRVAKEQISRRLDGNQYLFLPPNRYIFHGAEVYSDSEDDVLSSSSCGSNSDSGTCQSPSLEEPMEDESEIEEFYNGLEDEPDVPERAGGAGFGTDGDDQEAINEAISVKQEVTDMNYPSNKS

These compounds were tested against NAD-dependent deacetylase Sirtuin 1 (human, UniProt Q96EB6) (assay: primary screen, delta tm). Details: 10 µM.
Parameters: single well (n = 1, as 'the same TSA')
For O=C(OCc1ccccc1)c1c[nH]c2ccccc12, the “TSA(with NAD+) / Primary screening (TSA) / delta Tm (K)” value was -0.23 K.
With CC(SCc1cccc2ccccc12)C(=O)Nc1ncccn1 (stereo not shown) the “TSA(with NAD+) / Primary screening (TSA) / delta Tm (K)” value was -0.22 K.
For CC(N)CCN(C)C (stereo not shown), the “TSA(with NAD+) / Primary screening (TSA) / delta Tm (K)” value was -0.04 K.
With Cc1oc(C)c(C(=O)NCc2cccc(NC(=O)CN(C)C)c2)c1C the “TSA(with NAD+) / Primary screening (TSA) / delta Tm (K)” value was -0.05 K.
For Nc1nc(-c2cc3ccccc3oc2=O)nc2c1c(=O)oc1ccccc12, the “TSA(with NAD+) / Primary screening (TSA) / delta Tm (K)” value was 0.03 K.
For CCNc1ccnc(CSc2nc3ccsc3c(=O)n2C)c1, the “TSA(with NAD+) / Primary screening (TSA) / delta Tm (K)” value was 0.09 K.
In the case of COc1cccc(CSc2nc3ccsc3c(=O)n2C)c1, the “TSA(with NAD+) / Primary screening (TSA) / delta Tm (K)” value is reported as -0.09 K.
For CCOc1cc(N2CCOCC2)c(OCC)cc1NC(=O)C1=COCCO1, the “TSA(with NAD+) / Primary screening (TSA) / delta Tm (K)” value was -0.11 K.
In the case of Cc1oc(-c2ccccc2)nc1CN1CCN(c2nncc3ccccc23)CC1, the “TSA(with NAD+) / Primary screening (TSA) / delta Tm (K)” value is reported as -0.01 K.
With Cc1c(Cl)cccc1NC(=O)CNC(N)=O the “TSA(with NAD+) / Primary screening (TSA) / delta Tm (K)” value was -0.05 K.
COC(C)CN (stereo not shown) was tested, and the “TSA(with NAD+) / Primary screening (TSA) / delta Tm (K)” value was -0.12 K.
CCn1cc(C2CCN(C(=O)Cc3cnc4ccccc4c3)CC2)cn1 was tested, and the “TSA(with NAD+) / Primary screening (TSA) / delta Tm (K)” value was 0.68 K.
With CCc1ncc(F)c(Cl)n1 the “TSA(with NAD+) / Primary screening (TSA) / delta Tm (K)” value was -0.16 K.
In the case of CN(C)C(=O)N1CCCC(C(=O)Nc2ccc3c(c2)-c2ccccc2C3)C1 (stereo not shown), the “TSA(with NAD+) / Primary screening (TSA) / delta Tm (K)” value is reported as 0.01 K.
CCc1ccc(C(N)=S)cc1 was tested, and the “TSA(with NAD+) / Primary screening (TSA) / delta Tm (K)” value was -0.08 K.
In the case of CN(c1ccccc1)S(=O)(=O)c1cccc(C(=O)Nc2ccccc2)c1, the “TSA(with NAD+) / Primary screening (TSA) / delta Tm (K)” value is reported as -0.01 K.
With Cc1nc(-c2ccccn2)[nH]c(=O)c1CC(=O)NCCc1cccc2cccnc12 the “TSA(with NAD+) / Primary screening (TSA) / delta Tm (K)” value was 0.28 K.
O=C(CN1CCN(C(=O)c2ccc(-c3ccc(Cl)cc3)o2)CC1)Nc1cccc(F)c1 was tested, and the “TSA(with NAD+) / Primary screening (TSA) / delta Tm (K)” value was 0.32 K.
In the case of NC(=O)c1ccc(C(=O)OCC(=O)c2cc3ccccc3o2)cc1, the “TSA(with NAD+) / Primary screening (TSA) / delta Tm (K)” value is reported as -0.15 K.
Cc1nc(-c2ccc(CCNC(=O)c3ccc(-n4cncn4)cc3)s2)cs1 was tested, and the “TSA(with NAD+) / Primary screening (TSA) / delta Tm (K)” value was -0.14 K.
In the case of Cc1cc(C)nc(NS(=O)(=O)c2ccc(NN=C3C(=O)NC(=S)NC3=O)cc2)n1, the “TSA(with NAD+) / Primary screening (TSA) / delta Tm (K)” value is reported as 0.09 K.
For CCCOc1ccc(C2C(C(=O)c3ccc(F)cc3)=C(O)C(=O)N2CCCN2CCOCC2)cc1 (stereo not shown), the “TSA(with NAD+) / Primary screening (TSA) / delta Tm (K)” value was 0.06 K.
For Cc1ccccc1-c1cc(-c2ccccc2)c2cc([N+](=O)[O-])ccc2n1, the “TSA(with NAD+) / Primary screening (TSA) / delta Tm (K)” value was 0.16 K.
With COc1ccccc1S(=O)(=O)NCc1ccc(C(=O)NCC23CC4CC(CC(C4)C2)C3)cc1 the “TSA(with NAD+) / Primary screening (TSA) / delta Tm (K)” value was 0.09 K.
Cn1c(Cn2nnc3ccccc3c2=O)nc2cc(Cl)ccc21 was tested, and the “TSA(with NAD+) / Primary screening (TSA) / delta Tm (K)” value was -0.01 K.
With Cc1cc2nc(N3CCC(CNC(=O)OC(C)(C)C)CC3)c3ccccc3n2n1 the “TSA(with NAD+) / Primary screening (TSA) / delta Tm (K)” value was -0.28 K.
CC(NS(=O)(=O)c1cccc(C(=O)OCC(=O)Nc2sccc2C#N)c1)C12CC3CC(CC(C3)C1)C2 (stereo not shown) was tested, and the “TSA(with NAD+) / Primary screening (TSA) / delta Tm (K)” value was 0.37 K.
For COc1ccc(CNC(=S)NC2CCCCC2)cc1OC, the “TSA(with NAD+) / Primary screening (TSA) / delta Tm (K)” value was 0.16 K.
For Nc1nc2cc(C(=O)O)ccc2[nH]1, the “TSA(with NAD+) / Primary screening (TSA) / delta Tm (K)” value was -0.18 K.
With CN(c1ccccc1C(N)=O)S(=O)(=O)c1cccc(Cl)c1 the “TSA(with NAD+) / Primary screening (TSA) / delta Tm (K)” value was -0.02 K.
With Cc1cc(C=C2C(=O)NC(=S)NC2=O)c(C)n1-c1ccccc1C(F)(F)F the “TSA(with NAD+) / Primary screening (TSA) / delta Tm (K)” value was -1.15 K.
O=C1/C(=C/c2ccc(Br)cc2F)Cc2c(O)cccc21 was tested, and the “TSA(with NAD+) / Primary screening (TSA) / delta Tm (K)” value was 0.11 K.
NC(=O)c1cccc(COC(=O)c2ccc3[nH]c(C(F)F)nc3c2)c1 was tested, and the “TSA(with NAD+) / Primary screening (TSA) / delta Tm (K)” value was -0.11 K.
For COc1ccc(N(C)S(=O)(=O)c2cccc(C(=O)Nc3ccc(-n4cnnn4)cc3)c2)cc1, the “TSA(with NAD+) / Primary screening (TSA) / delta Tm (K)” value was 0.76 K.
In the case of Cc1ccccc1-c1nnn(Cc2cc(=O)oc3c(C)c(C)ccc23)n1, the “TSA(with NAD+) / Primary screening (TSA) / delta Tm (K)” value is reported as -0.18 K.
COCC(=O)N1CCN(Cc2c(O)ccc3ccc(OC)cc23)CC1 was tested, and the “TSA(with NAD+) / Primary screening (TSA) / delta Tm (K)” value was -0.16 K.
In the case of CC(C)(C)C(=O)N1CCc2cnccc21, the “TSA(with NAD+) / Primary screening (TSA) / delta Tm (K)” value is reported as -0.15 K.
In the case of CCCNC(=O)c1ccc2[nH]c3c(c2c1)CC(C)CC3 (stereo not shown), the “TSA(with NAD+) / Primary screening (TSA) / delta Tm (K)” value is reported as -0.03 K.
For CC(Oc1cccc(/C=C2/CCc3cc(O)ccc3C2=O)c1)C(=O)O (stereo not shown), the “TSA(with NAD+) / Primary screening (TSA) / delta Tm (K)” value was -0.18 K.
In the case of CC(=O)NC12CC3CC(C1)CC(C(=O)OCC(=O)N(CCc1ccccc1)CCc1ccccc1)(C3)C2, the “TSA(with NAD+) / Primary screening (TSA) / delta Tm (K)” value is reported as -0.01 K.
O=C(OCc1nnc(C(=O)NCc2ccc(F)cc2)s1)c1cc2c(s1)CCCC2 was tested, and the “TSA(with NAD+) / Primary screening (TSA) / delta Tm (K)” value was -0.14 K.
CC(C)c1nnc(CSc2nccn2Cc2ccccn2)o1 was tested, and the “TSA(with NAD+) / Primary screening (TSA) / delta Tm (K)” value was -0.16 K.
In the case of CC(N)CC(N)=O (stereo not shown), the “TSA(with NAD+) / Primary screening (TSA) / delta Tm (K)” value is reported as -0.13 K.
CN1CC(Nc2c(C#N)cnc3ccc(Cl)cc23)CCC1=O (stereo not shown) was tested, and the “TSA(with NAD+) / Primary screening (TSA) / delta Tm (K)” value was 0.02 K.
COc1ccc(-c2ccc(/C=C3\NC(=S)NC3=O)o2)c([N+](=O)[O-])c1 was tested, and the “TSA(with NAD+) / Primary screening (TSA) / delta Tm (K)” value was -0.02 K.
For CCOC(=O)N1CCN(Cc2ccc(OCc3cccnc3)cc2)CC1, the “TSA(with NAD+) / Primary screening (TSA) / delta Tm (K)” value was -0.03 K.
For CC(=O)Nc1ccc2c(COC(=O)C34CC5CC(C3)CC(c3ccccc3)(C5)C4)cc(=O)oc2c1, the “TSA(with NAD+) / Primary screening (TSA) / delta Tm (K)” value was 0.03 K.
For CC1CCc2c(sc3ncn(CC(=O)c4ccc5c(c4)CCC5)c(=O)c23)C1 (stereo not shown), the “TSA(with NAD+) / Primary screening (TSA) / delta Tm (K)” value was 0.16 K.
Cc1ccc(C2C(C(=O)c3sc(C)nc3C)=C(O)C(=O)N2CCCN2CCOCC2)cc1 (stereo not shown) was tested, and the “TSA(with NAD+) / Primary screening (TSA) / delta Tm (K)” value was -0.23 K.
For Sc1ccc(Cl)cn1, the “TSA(with NAD+) / Primary screening (TSA) / delta Tm (K)” value was 0.09 K.
With CC(C)(C)OC(=O)NCC1CCCN1c1ccc(Br)cc1[N+](=O)[O-] (stereo not shown) the “TSA(with NAD+) / Primary screening (TSA) / delta Tm (K)” value was 0.16 K.
For CN(c1ccc(OC(=O)c2cc(Cl)nc3ccccc23)cc1)S(=O)(=O)c1ccccc1, the “TSA(with NAD+) / Primary screening (TSA) / delta Tm (K)” value was -0.12 K.
For NC(=O)c1c(NC(=O)CN2CCCC(CN3CCN(c4ccccn4)CC3)C2)sc2c1CCCC2 (stereo not shown), the “TSA(with NAD+) / Primary screening (TSA) / delta Tm (K)” value was -0.06 K.
In the case of C=CCn1c(N)nnc1SCC1CC(C(=O)OC)=C(C)O1 (stereo not shown), the “TSA(with NAD+) / Primary screening (TSA) / delta Tm (K)” value is reported as 0.02 K.
For O=C(CCc1ccccc1)NCCNc1cnccn1, the “TSA(with NAD+) / Primary screening (TSA) / delta Tm (K)” value was -0.04 K.
In the case of CCN1C(=O)c2oc3ccccc3c(=O)c2C1c1ccc(Cl)cc1 (stereo not shown), the “TSA(with NAD+) / Primary screening (TSA) / delta Tm (K)” value is reported as -0.01 K.
Cc1cc(C)c(C(N)=O)c(N2CCC3CCCCC3C2)n1 (stereo not shown) was tested, and the “TSA(with NAD+) / Primary screening (TSA) / delta Tm (K)” value was -0.03 K.
CC(C)CC(NC(=O)C#Cc1ccccc1)C(=O)Nc1cc[nH]n1 (stereo not shown) was tested, and the “TSA(with NAD+) / Primary screening (TSA) / delta Tm (K)” value was -0.14 K.
For O=C(CSc1nnc(-c2sc3ccccc3c2Cl)o1)N1CCN(C(=O)c2ccco2)CC1, the “TSA(with NAD+) / Primary screening (TSA) / delta Tm (K)” value was -0.13 K.
For O=C(c1ccco1)N1CCC(Nc2nc(-c3ccccc3)nc3ccccc23)CC1, the “TSA(with NAD+) / Primary screening (TSA) / delta Tm (K)” value was 0.07 K.
In the case of O=C(COC(=O)/C=C/c1cn(-c2ccccc2)nc1-c1cc2ccccc2oc1=O)NC1CCS(=O)(=O)C1 (stereo not shown), the “TSA(with NAD+) / Primary screening (TSA) / delta Tm (K)” value is reported as -0.22 K.
